Experimental data: publication PMC9249397
Results are given in words; binding and its absence hold for the method and conditions named. In cells and extracts the contact can be indirect. Here binding means that the protein was enriched with, or labelled near, the bait; the list need not be complete.

Amino acid sequences for entries named in this document (tags omitted).
UniProt G3UZ78: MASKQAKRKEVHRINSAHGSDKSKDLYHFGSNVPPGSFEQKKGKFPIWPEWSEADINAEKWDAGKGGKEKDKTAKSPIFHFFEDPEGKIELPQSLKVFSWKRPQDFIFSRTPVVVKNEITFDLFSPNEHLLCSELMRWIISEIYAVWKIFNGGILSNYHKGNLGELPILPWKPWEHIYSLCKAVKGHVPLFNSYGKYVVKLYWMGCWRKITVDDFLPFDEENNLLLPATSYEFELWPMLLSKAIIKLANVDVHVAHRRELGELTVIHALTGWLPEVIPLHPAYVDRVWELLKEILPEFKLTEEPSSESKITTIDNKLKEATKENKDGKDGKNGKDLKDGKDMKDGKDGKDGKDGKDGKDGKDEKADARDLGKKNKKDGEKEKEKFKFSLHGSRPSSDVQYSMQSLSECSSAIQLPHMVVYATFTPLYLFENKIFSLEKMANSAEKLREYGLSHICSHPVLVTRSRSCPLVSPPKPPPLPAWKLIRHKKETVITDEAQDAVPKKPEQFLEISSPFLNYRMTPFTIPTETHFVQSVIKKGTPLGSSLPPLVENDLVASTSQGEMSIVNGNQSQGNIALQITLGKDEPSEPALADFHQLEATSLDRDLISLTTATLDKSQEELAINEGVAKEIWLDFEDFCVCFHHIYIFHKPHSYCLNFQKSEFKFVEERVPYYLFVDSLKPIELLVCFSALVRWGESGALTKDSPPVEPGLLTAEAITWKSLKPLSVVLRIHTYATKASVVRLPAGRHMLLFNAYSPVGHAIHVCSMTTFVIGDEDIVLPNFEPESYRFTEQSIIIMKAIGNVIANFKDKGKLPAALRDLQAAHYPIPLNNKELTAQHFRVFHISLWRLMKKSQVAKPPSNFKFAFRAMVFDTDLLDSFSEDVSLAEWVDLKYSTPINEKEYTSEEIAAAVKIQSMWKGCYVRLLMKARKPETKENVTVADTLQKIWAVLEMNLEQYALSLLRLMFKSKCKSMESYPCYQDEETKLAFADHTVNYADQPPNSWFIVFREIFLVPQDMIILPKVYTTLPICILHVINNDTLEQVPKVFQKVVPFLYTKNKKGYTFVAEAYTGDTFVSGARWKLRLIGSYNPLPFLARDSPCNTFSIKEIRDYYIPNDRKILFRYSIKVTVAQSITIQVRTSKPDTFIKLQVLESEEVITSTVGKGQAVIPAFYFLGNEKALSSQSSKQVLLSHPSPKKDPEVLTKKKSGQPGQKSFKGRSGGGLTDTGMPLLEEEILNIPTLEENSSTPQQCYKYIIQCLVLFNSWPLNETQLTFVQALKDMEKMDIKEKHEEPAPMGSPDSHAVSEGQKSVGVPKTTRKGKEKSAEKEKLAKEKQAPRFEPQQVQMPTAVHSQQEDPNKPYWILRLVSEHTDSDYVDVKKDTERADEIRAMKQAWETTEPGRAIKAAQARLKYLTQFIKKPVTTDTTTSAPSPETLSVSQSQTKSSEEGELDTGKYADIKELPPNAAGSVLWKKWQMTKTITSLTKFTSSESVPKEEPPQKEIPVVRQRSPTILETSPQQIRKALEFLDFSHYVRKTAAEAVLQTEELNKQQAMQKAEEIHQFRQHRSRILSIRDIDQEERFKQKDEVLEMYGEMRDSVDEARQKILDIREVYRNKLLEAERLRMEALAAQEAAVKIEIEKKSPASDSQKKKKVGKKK

Molecular target: androglobin (Adgb) (mouse (endogenous in testis)) (UniProt G3UZ78)
Experiment: affinity purification with mass spectrometry; total protein extracts of wild-type mouse testes (4 mg) immunoprecipitated with anti-Adgb or control rabbit IgG on protein G-sepharose, washes with 300 mM and 150 mM NaCl, LC-MS/MS

binding: binds
B1: septin 10 (Sept10) (protein, UniProt Q8C650 1-452)
chain: MASCDEIKEHPRSLSMCGHVGFESLPDQLVDRSIEQGFCFNILCVGETGIGKSTLINTLFNTNFEELESSHFCPCVRLRAQTYELQESNVRLKLTIVNTVGFGDQINKEDSYQPIVDYIDDQFEAYLQEEVKIKRALFNYHDSRIHVCLYFIAPTGHSLRTLDLLTMKSLDNKVNIIPLIAKADTISKSELQKFKMKLMNELVINGVQIYQFPTDDDTTSKINGAMNGHLPFAVVGSMDEIKVGNKMVKGRQYPWGIVQVENENHCDFVKLREMLICTNMEDLREQTHMRHYELYRRCKLQEMGFVDMGPENKPLSLQETYEAKRHEFYGERQRKEEQMKQMFVQRVKEKEAILKEAERELQAKFEHLKRIHQEERMKLEEKRRMLEEESVAFAKKKATCELFPNQSFLASGSSIRKDKDRKKADGASAFCDCLTAQESVRLCISSPRKDMD
